Data: PubChem BioAssay (NCATS)
The inconclusive results got no clear call from the source; some entries with a clear call stand among them for comparison. Potencies beside an inconclusive call are fits to weak or partial responses and may not hold up. The source made the active and inactive calls. The call rests on the fitted dose curve; in most records, active means well fitted cell-killing curve with a large enough effect; inconclusive means small, poorly fitted or top-dose-only effect, or effect the other way; inactive means no such curve, though single readings can be large or run the other way.

Legend:
[1] = Quantitative High-Throughput drug screen in 47 multiple myeloma cell lines against the NCATS MIPE library collection: MM1R_ATCC cell viability assay (AID 1918981); conditions: MM1R multiple myeloma cells, CellTiter-Glo viability, 48 h; series mostly up to 45.8 µM; further: nearly all actives have a fitted effect of over 35% in size
Procedure, shortened: (§1)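 MIPE 4.0 approved/investigational drugs; 500 cells/well; 48 h 37 °C humidified 5% CO2; CTG luminescence readout; DMSO = 100%, media = 0% viability.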

[2] = Quantitative High-Throughput drug screen in 47 multiple myeloma cell lines against the NCATS MIPE library collection: KMS28PE_JCRB cell viability assay (AID 1918983); conditions: KMS28PE multiple myeloma viability, CellTiter-Glo ATP, 48 h; series mostly up to 45.8 µM; further: nearly all actives have a fitted effect of over 35% in size
Procedure, shortened: as §1

[3] = Quantitative High-Throughput drug screen in 47 multiple myeloma cell lines against the NCATS MIPE library collection: L363_DSMZ cell viability assay (AID 1918984); conditions: L363 myeloma viability, CellTiter-Glo ATP luminescence, 48 h; viability (% of control): at 45.8 µM (top of the series); further: nearly all actives have a fitted effect of over 40% in size
Procedure, shortened: as §1

[4] = Quantitative High-Throughput drug screen in 47 multiple myeloma cell lines against the NCATS MIPE library collection: KMS34_JCRB cell viability assay (AID 1918985); conditions: KMS34 myeloma viability, CellTiter-Glo ATP luminescence, 48 h; viability, percent of control: at 45.8 µM (top of the series); further: nearly all actives have a fitted effect of over 40% in size
Procedure, shortened: as §1

[5] = Quantitative High-Throughput drug screen in 47 multiple myeloma cell lines against the NCATS MIPE library collection: OCIMY7_PLB cell viability assay (AID 1918987); conditions: OCI-MY7 myeloma viability, CellTiter-Glo ATP, 48 h; viability (% of DMSO): at 45.8 µM (top of the series); further: nearly all actives have a fitted effect of over 65% in size
Procedure, shortened: as §1

[6] = Quantitative High-Throughput drug screen in 47 multiple myeloma cell lines against the NCATS MIPE library collection: OCIMY5_PLB cell viability assay (AID 1918988); conditions: OCI-MY5 myeloma viability, ATP luminescence, 48 h; viability, % of control: at 45.8 µM (top of the series); further: nearly all actives have a fitted effect of over 65% in size
Procedure, shortened: as §1

[7] = Quantitative High-Throughput drug screen in 47 multiple myeloma cell lines against the NCATS MIPE library collection: OPM1_PLB cell viability assay (AID 1918989); conditions: CellTiter-Glo, 48 h; viability (% of control): at 45.8 µM (top of the series); further: nearly all actives have a fitted effect of over 40% in size
Procedure, shortened: as §1

[8] = Quantitative High-Throughput drug screen in 47 multiple myeloma cell lines against the NCATS MIPE library collection: SKMM1_PLB cell viability assay (AID 1919863); conditions: SKMM1 myeloma viability, CellTiter-Glo ATP, 48 h; viability: hits give low values; further: nearly all actives have a fitted effect of over 35% in size
Procedure, shortened: as §1

[9] = Quantitative High-Throughput drug screen in 47 multiple myeloma cell lines against the NCATS MIPE library collection: U266_ATCC cell viability assay (AID 1919864); conditions: U266 myeloma viability, CellTiter-Glo ATP luminescence, 48 h; series mostly up to 45.8 µM; further: nearly all actives have a fitted effect of over 35% in size
Procedure, shortened: as §1

[10] = Quantitative High-Throughput drug screen in 47 multiple myeloma cell lines against the NCATS MIPE library collection: LP1_DSMZ cell viability assay (AID 1918982); conditions: LP1 myeloma viability, CellTiter-Glo ATP luminescence, 48 h; viability (% of control): at 45.8 µM (top of the series); further: nearly all actives have a fitted effect of over 35% in size
Procedure, shortened: as §1
Potency means the concentration at half of the fitted maximal effect.

COc1ccccc1OCC(O)CN1CCN(CC(=O)Nc2c(C)cccc2C)CC1 (stereo not given)
inactive: Potency [1] | Potency [3] | Potency [7] | viability [8] 110%
inconclusive: Potency [2] 0.0033 µM [rising, full curve] | Potency [4] 0.132 µM [rising, full curve, poor fit] | Potency [5] 5.26 µM [cytotoxic, partial curve, poor fit] | Potency [6] 0.0033 µM [cytotoxic, full curve, poor fit]

O=c1c2ccccc2nc2n1CCc1c-2[nH]c2ccccc12
inactive: Potency [1] | Potency [2] | Potency [4] | Potency [9]
active: Potency [5] 18.7 µM
inconclusive: Potency [3] 0.332 µM [cytotoxic, full curve, poor fit] | Potency [6] 0.372 µM [cytotoxic, full curve, poor fit] | Potency [7] 37.2 µM [cytotoxic, single point]

Cc1ccnc(NS(=O)(=O)c2ccc(NC(=O)Nc3ccc(S(=O)(=O)Nc4nccc(C)n4)cc3)cc2)n1
inconclusive: Potency [10] 93.5 µM [cytotoxic, single point] | Potency [3] 14.8 µM [cytotoxic, partial curve, poor fit] | Potency [6] 1.48 µM [cytotoxic, full curve, poor fit] | Potency [8] 0.469 µM [cytotoxic, full curve, poor fit] | Potency [9] 0.0023 µM [rising, full curve, poor fit]
inactive: Potency [1] | Potency [4]

Cc1ccc2nc(NCCN)c3ncc(C)n3c2c1
inconclusive: Potency [3] 5.26 µM [cytotoxic, full curve, poor fit]
active: Potency [1] 3.32 µM | Potency [10] 2.64 µM | Potency [4] 8.33 µM | Potency [5] 6.62 µM | Potency [6] 1.32 µM | Potency [9] 3.72 µM

O=C(C=CC=Cc1ccc2c(c1)OCO2)N1CCCCC1
inactive: Potency [10] | Potency [4] | Potency [9]
inconclusive: Potency [1] 0.0042 µM [cytotoxic, full curve, poor fit] | Potency [3] 6.62 µM [cytotoxic, full curve, poor fit] | Potency [6] 0.105 µM [rising, full curve, poor fit] | Potency [8] 0.0418 µM [cytotoxic, full curve, poor fit]

O=C(C=Cc1ccc(O)cc1)c1ccc(O)cc1O
active: Potency [6] 14.8 µM
inconclusive: Potency [1] 20.9 µM [cytotoxic, partial curve, poor fit] | Potency [10] 33.2 µM [cytotoxic, single point] | Potency [3] 11.8 µM [cytotoxic, partial curve] | Potency [4] 16.6 µM [cytotoxic, partial curve, poor fit] | Potency [8] 1.32 µM [cytotoxic, full curve, poor fit]

COCCCN1CCC(NC(=O)c2cc(Cl)c(N)c3c2OCC3)CC1
inactive: Potency [4] | Potency [9]
inconclusive: Potency [1] 23.5 µM [cytotoxic, partial curve, poor fit] | Potency [10] 13.2 µM [cytotoxic, partial curve, poor fit] | Potency [5] 37.2 µM [cytotoxic, partial curve, poor fit] | Potency [6] 20.9 µM [cytotoxic, partial curve, poor fit] | Potency [7] 37.2 µM [cytotoxic, single point] | Potency [8] 37.2 µM [cytotoxic, single point]

CC(C)C(=O)Nc1ncc(-c2cc(C(F)F)nn2-c2c(Cl)cccc2Cl)s1
inconclusive: Potency [1] 37.2 µM [cytotoxic, single point] | Potency [10] 37.2 µM [cytotoxic, single point] | Potency [4] 23.5 µM [cytotoxic, partial curve] | Potency [9] 37.2 µM [cytotoxic, single point]
active: Potency [3] 8.33 µM | Potency [5] 16.6 µM | Potency [8] 16.6 µM

COC(=O)C1=C(C)NC(C)=C(C(=O)OCCN2CCN(C(c3ccccc3)c3ccccc3)CC2)C1c1cccc([N+](=O)[O-])c1 (stereo not given)
inactive: Potency [1] | Potency [3] | viability [8] 126% | Potency [9]
inconclusive: Potency [10] 1.18 µM [cytotoxic, full curve, poor fit] | Potency [4] 2.35 µM [cytotoxic, full curve, poor fit] | Potency [6] 0.0935 µM [cytotoxic, full curve, poor fit]

CO[C@H]1C=CC=C(C)C(=O)NC2=CC(=O)C(NCCN(C)C)=C(C[C@@H](C)C[C@H](OC)[C@@H](O)[C@@H](C)C=C(C)[C@@H]1OC(N)=O)C2=O
inconclusive: viability (% of control) [3] 3.32% [cytotoxic]
active: Potency [1] 0.0296 µM | Potency [10] 0.418 µM | Potency [4] 0.0132 µM | Potency [6] 0.0118 µM | Potency [8] 0.372 µM

O=C1C[C@@H](c2ccc(O)cc2)Oc2cc(O)cc(O)c21
inactive: Potency [1] | Potency [7]
inconclusive: Potency [2] 0.0047 µM [cytotoxic, full curve, poor fit] | Potency [3] 3.72 µM [cytotoxic, partial curve, poor fit] | Potency [4] 2.09 µM [cytotoxic, full curve, poor fit] | Potency [5] 0.0047 µM [cytotoxic, full curve, poor fit] | Potency [6] 1.05 µM [cytotoxic, full curve, poor fit] | Potency [8] 0.0332 µM [cytotoxic, full curve, poor fit] | Potency [9] 2.96 µM [cytotoxic, full curve, poor fit]

CC(=O)Oc1ccccc1C(=O)O
inconclusive: Potency [10] 0.001 µM
inactive: Potency [3] | Potency [4] | viability [8] 129%
active: Potency [1] 18.7 µM | Potency [6] 5.26 µM

O=c1c(O)c(-c2ccc(O)c(O)c2)oc2cc(O)cc(O)c12
inconclusive: Potency [1] 26.4 µM [cytotoxic, single point] | Potency [10] 29.6 µM [cytotoxic, single point] | Potency [3] 33.2 µM [cytotoxic, single point] | Potency [4] 0.0935 µM [rising, full curve, poor fit] | Potency [6] 5.26 µM [cytotoxic, partial curve, poor fit] | Potency [8] 0.0066 µM [rising, full curve, poor fit] | Potency [9] 37.2 µM [cytotoxic, single point]

NC(=O)c1cccc2[nH]c(-c3ccc([C@H]4CCCN4)cc3F)nc12
inconclusive: Potency [1] 26.4 µM [cytotoxic, partial curve, poor fit] | Potency [4] 23.5 µM [cytotoxic, single point] | Potency [5] 13.2 µM [cytotoxic, partial curve, poor fit] | Potency [8] 33.2 µM [cytotoxic, single point] | Potency [9] 18.7 µM [cytotoxic, partial curve, poor fit]
inactive: Potency [10]

Quoted at random: two compounds from above, in no set order.
CC(=O)Oc1ccccc1C(=O)O
inconclusive: Potency [10] 0.001 µM
inactive: Potency [3] | Potency [4] | viability [8] 129%
active: Potency [1] 18.7 µM | Potency [6] 5.26 µM

COc1ccccc1OCC(O)CN1CCN(CC(=O)Nc2c(C)cccc2C)CC1 (stereo not given)
inactive: Potency [1] | Potency [3] | Potency [7] | viability [8] 110%
inconclusive: Potency [2] 0.0033 µM [rising, full curve] | Potency [4] 0.132 µM [rising, full curve, poor fit] | Potency [5] 5.26 µM [cytotoxic, partial curve, poor fit] | Potency [6] 0.0033 µM [cytotoxic, full curve, poor fit]

The list goes on.

O=C(Nc1cc2cc[nH]c2cn1)c1ccccc1
active: Potency [1] 7.43 µM | Potency [9] 11.8 µM
inconclusive: Potency [10] 13.2 µM [cytotoxic, partial curve] | Potency [4] 8.33 µM [cytotoxic, partial curve, poor fit]

COc1ccc(-c2cc(=O)c3c(O)cc(O)cc3o2)cc1O
inconclusive: Potency [10] 37.2 µM [cytotoxic, single point]
inactive: viability [8] 119%
active: Potency [1] 16.6 µM | Potency [3] 5.9 µM | Potency [4] 20.9 µM | Potency [6] 2.64 µM

CCCn1c(=O)c2[nH]c(C34CC5CC3C[C@@H](C5)C4)nc2n(CCC)c1=O
inconclusive: Potency [3] 0.105 µM [cytotoxic, full curve, poor fit] | Potency [4] 8.33 µM [cytotoxic, full curve, poor fit] | Potency [6] 20.9 µM [cytotoxic, partial curve, poor fit] | Potency [8] 11.8 µM [cytotoxic, partial curve, poor fit]
active: Potency [1] 11.8 µM | Potency [10] 11.8 µM
inactive: Potency [9]

N=c1ccn2c(n1)O[C@H]1[C@@H](O)[C@@H](CO)O[C@H]12
inconclusive: Potency [1] 1.18 µM [cytotoxic, full curve] | Potency [3] 16.6 µM [cytotoxic, partial curve] | Potency [4] 0.0469 µM [cytotoxic, full curve] | Potency [6] 0.0053 µM [cytotoxic, full curve, poor fit]
active: Potency [9] 18.7 µM

COc1cc2c(Oc3ccc(NC(=O)C4(C(=O)Nc5ccc(F)cc5)CC4)cc3F)ccnc2cc1OCCCN1CCOCC1
active: Potency [1] 4.18 µM | Potency [2] 4.18 µM | Potency [5] 0.264 µM | Potency [8] 20.9 µM
